# Values from PubChem BioAssay AID1508597 (Cure First, 2020)
# Assay: 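Genes whose silencing sensitises or protects ovarian cancer cells against rucaparib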 (primary screen)
# Cell system: human ovarian carcinoma lines grown from tumours: OCI-P5x (papillary serous) and OCI-C5x (clear cell)
# Reagent: siRNA pool against human genes, 1.25 pmol siRNA per well
# Timing: 72 h or 96 h, depending on the cell culture
# Treatment: rucaparib 20 µM (about IC30) or vehicle, present until read-out
# Rucaparib or vehicle: Vehicle
# Cell line: OCI-P5x (serous)
# Detection: 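Luminescent ATP-based viability assay read 72 or 96 h after transfection, depending on culture, given as normalised percent viability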
# Direction: viability, normalised: higher = more viable cells remaining
# Rule for the call: 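a well counts as a hit if its normalised viability is under 80 percent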
# Calls: active = viability under 80%; inactive = viability 80% or more
# This is an unselected part of the about 2,100 reagents, under one of the conditions tested. 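Calls flag viability under 80% in either arm, not effects specific to rucaparib; the reference for percent is not stated.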 A number with no mark means an inactive call. Some reagents were tested in more than one well and are listed for each. Not given: the 100% reference.
target gene,PubChem SID,technical replicate,"viability, normalised (%)"
JARID2 (jumonji and AT-rich interaction domain containing 2),SID405526913,1,69.7 (active)
JARID2 (jumonji and AT-rich interaction domain containing 2),SID405526913,2,69.2 (active)
JARID2 (jumonji and AT-rich interaction domain containing 2),SID405526913,3,79.5 (active)
SMARCD3 (SWI/SNF related BAF chromatin remodeling complex subunit D3),SID405527336,1,59.5 (active)
SMARCD3 (SWI/SNF related BAF chromatin remodeling complex subunit D3),SID405527336,2,59.6 (active)
SMARCD3 (SWI/SNF related BAF chromatin remodeling complex subunit D3),SID405527336,3,99.1
ZDHHC15 (zDHHC palmitoyltransferase 15),SID405526646,1,66.4 (active)
ZDHHC15 (zDHHC palmitoyltransferase 15),SID405526646,2,66.4 (active)
ZDHHC15 (zDHHC palmitoyltransferase 15),SID405526646,3,43.9 (active)
SUPT6H,SID405526507,1,28.1 (active)
SUPT6H,SID405526507,2,40.6 (active)
SUPT6H,SID405526507,3,34.3 (active)
HNF1A (HNF1 homeobox A),SID405526882,1,66.7 (active)
HNF1A (HNF1 homeobox A),SID405526882,2,81.2
HNF1A (HNF1 homeobox A),SID405526882,3,72 (active)
XPO5 (exportin 5),SID405526635,1,65.8 (active)
XPO5 (exportin 5),SID405526635,2,54.6 (active)
XPO5 (exportin 5),SID405526635,3,81.6
TARBP2 (TARBP2 subunit of RISC loading complex),SID405526533,1,81.6
TARBP2 (TARBP2 subunit of RISC loading complex),SID405526533,2,92.8
TARBP2 (TARBP2 subunit of RISC loading complex),SID405526533,3,88.9
ITGB5 (integrin subunit beta 5),SID405526386,1,57.2 (active)
ITGB5 (integrin subunit beta 5),SID405526386,2,66.1 (active)
ITGB5 (integrin subunit beta 5),SID405526386,3,70.8 (active)
NOTCH1 (notch receptor 1),SID405527086,1,56.4 (active)
NOTCH1 (notch receptor 1),SID405527086,2,64.3 (active)
NOTCH1 (notch receptor 1),SID405527086,3,77.6 (active)
CRAMP1 (cramped chromatin regulator 1),SID405528148,1,73.5 (active)
CRAMP1 (cramped chromatin regulator 1),SID405528148,2,60 (active)
CRAMP1 (cramped chromatin regulator 1),SID405528148,3,76.5 (active)
KTI12 (KTI12 chromatin associated homolog),SID405526947,1,65.3 (active)
KTI12 (KTI12 chromatin associated homolog),SID405526947,2,60.2 (active)
KTI12 (KTI12 chromatin associated homolog),SID405526947,3,75.4 (active)
MST1R (macrophage stimulating 1 receptor),SID405527471,1,83.1
MST1R (macrophage stimulating 1 receptor),SID405527471,2,84.5
MST1R (macrophage stimulating 1 receptor),SID405527471,3,95.6
MIER2 (MIER family member 2),SID405527012,1,68.6 (active)
MIER2 (MIER family member 2),SID405527012,2,62.9 (active)
MIER2 (MIER family member 2),SID405527012,3,46.9 (active)
SHH (sonic hedgehog signaling molecule),SID405527295,1,51.5 (active)
SHH (sonic hedgehog signaling molecule),SID405527295,2,57.2 (active)
SHH (sonic hedgehog signaling molecule),SID405527295,3,79.2 (active)

9 of these entries, reformatted:
target gene | PubChem SID | technical replicate | viability, normalised (%)
KTI12 (KTI12 chromatin associated homolog) | SID405526947 | 2 | 60.2 (active)
KTI12 (KTI12 chromatin associated homolog) | SID405526947 | 3 | 75.4 (active)
MST1R (macrophage stimulating 1 receptor) | SID405527471 | 1 | 83.1
MST1R (macrophage stimulating 1 receptor) | SID405527471 | 2 | 84.5
MST1R (macrophage stimulating 1 receptor) | SID405527471 | 3 | 95.6
MIER2 (MIER family member 2) | SID405527012 | 1 | 68.6 (active)
MIER2 (MIER family member 2) | SID405527012 | 2 | 62.9 (active)
MIER2 (MIER family member 2) | SID405527012 | 3 | 46.9 (active)
SHH (sonic hedgehog signaling molecule) | SID405527295 | 1 | 51.5 (active)

The list goes on:
target gene,PubChem SID,technical replicate,"viability, normalised (%)"
"SPTB (spectrin beta, erythrocytic)",SID405526496,1,80.7
"SPTB (spectrin beta, erythrocytic)",SID405526496,2,74 (active)
"SPTB (spectrin beta, erythrocytic)",SID405526496,3,118
TDRD5 (tudor domain containing 5),SID405526545,1,74 (active)
TDRD5 (tudor domain containing 5),SID405526545,2,82.4
TDRD5 (tudor domain containing 5),SID405526545,3,61.5 (active)
MUS81 (MUS81 structure-specific endonuclease subunit),SID405528435,1,71.6 (active)
MUS81 (MUS81 structure-specific endonuclease subunit),SID405528435,2,79.2 (active)
MUS81 (MUS81 structure-specific endonuclease subunit),SID405528435,3,73.9 (active)
CBX2 (chromobox 2),SID405528070,1,68.1 (active)
CBX2 (chromobox 2),SID405528070,2,77.4 (active)
CBX2 (chromobox 2),SID405528070,3,80
SIRT5 (sirtuin 5),SID405527303,1,50.1 (active)
SIRT5 (sirtuin 5),SID405527303,2,68.5 (active)
SIRT5 (sirtuin 5),SID405527303,3,78.2 (active)
DGKE (diacylglycerol kinase epsilon),SID405527562,1,96.9
DGKE (diacylglycerol kinase epsilon),SID405527562,2,98.3
DGKE (diacylglycerol kinase epsilon),SID405527562,3,98.3
LRRK1 (leucine rich repeat kinase 1),SID405528585,1,82.7
LRRK1 (leucine rich repeat kinase 1),SID405528585,2,78.9 (active)
LRRK1 (leucine rich repeat kinase 1),SID405528585,3,79.9 (active)
WNK1 (WNK lysine deficient protein kinase 1),SID405526454,1,78.2 (active)
WNK1 (WNK lysine deficient protein kinase 1),SID405526454,1,80.5
WNK1 (WNK lysine deficient protein kinase 1),SID405526454,2,93.7
WNK1 (WNK lysine deficient protein kinase 1),SID405526454,2,72.8 (active)
WNK1 (WNK lysine deficient protein kinase 1),SID405526454,3,79.1 (active)
WNK1 (WNK lysine deficient protein kinase 1),SID405526454,3,85.1
NTRK2 (neurotrophic receptor tyrosine kinase 2),SID405527494,1,99.5
NTRK2 (neurotrophic receptor tyrosine kinase 2),SID405527494,2,74.1 (active)
NTRK2 (neurotrophic receptor tyrosine kinase 2),SID405527494,3,111
FKBP1A (FKBP prolyl isomerase 1A),SID405526785,1,76 (active)
FKBP1A (FKBP prolyl isomerase 1A),SID405526785,2,70.5 (active)
FKBP1A (FKBP prolyl isomerase 1A),SID405526785,3,96.9
